The values that follow are results of earlier work, collected in article PMC12658820, “Development of Tunable Rose Bengal-Based nanoGUMBOS as Potential Selective Chemotherapeutic Agents” (ACS Omega, 2025).

What is called IC50 is the midpoint of a concentration-inhibition curve.

The data set has as its system A549 cells. Details: method as in numbers not shown in text. The settings on record: literature comparison, ref numbers not shown in text; cited from earlier work.

Regarding `COc1cccc2c1C(=O)c1c(O)c3c(c(O)c1C2=O)C[C@@](O)(C(=O)CO)C[C@@H]3O[C@H]1C[C@H](N)[C@H](O)[C@H](C)O1` [Doxorubicin], the IC50 is 4.4 µM.
